# At least one compound was matched to its structure with a doubt left.
# Assay: FRAP method (Ferric Reducing Antioxidant Power), aqueous medium, 10 min incubation (after Pulido et al., 2000)
# Assay type: biochemical
# Details: antioxidant concentration with reducing power equivalent to 1 mmol/L FeSO4 7 H2O, mean of 3 (SD)
# Method: Pour comparaison ou pour l'expression des résultats, les capacités antioxydantes des composés suivants ont été également mesurées : vitamine C (acide ascorbique), Trolox (analogue hydrosoluble de la vitamine E), (-)-épicatéchine, et phloridzine.
# Tableau III - Mesure de la capacité antioxydante en milieu aqueux par la méthode FRAP pour 10 minutes d'incubation (d'après Pulido et al., 2000).
structure (smiles),measurement,value
"O=C(CCc1ccc(O)cc1)c1c(O)cc(O)cc1O[C@@H]1O[C@H](CO)[C@@H](O)[C@H](O)[C@H]1O [Phloridzine, phloridzine, reference compound]",EC1,5 161 (195) µmol/L

# — patent publication EP1685120B1, “COLOURING HYDROSOLUBLE YELLOW PREPARATION DERIVED FROM DIHYDROCHALCONES” (INSTITUT NATIONAL DE LA RECHERCHE AGRONOMIQUE, priority 2003, dated 2005)
